From paper PMC12165855 come the findings set out here.

No constants are given. Whether binding was seen depends on the method and setting. Binding seen in cells or lysates may run through a third protein. Some results given as binding are weak or reduced against the parent protein; the word gives no strength. Where a sequence is shown, tags or fusion partners need not be part of it.

The assay concerns the target T1, KDM4C histone lysine demethylase (human (endogenous in SUM149)) (UniProt Q9H3R0).
T1 sequence: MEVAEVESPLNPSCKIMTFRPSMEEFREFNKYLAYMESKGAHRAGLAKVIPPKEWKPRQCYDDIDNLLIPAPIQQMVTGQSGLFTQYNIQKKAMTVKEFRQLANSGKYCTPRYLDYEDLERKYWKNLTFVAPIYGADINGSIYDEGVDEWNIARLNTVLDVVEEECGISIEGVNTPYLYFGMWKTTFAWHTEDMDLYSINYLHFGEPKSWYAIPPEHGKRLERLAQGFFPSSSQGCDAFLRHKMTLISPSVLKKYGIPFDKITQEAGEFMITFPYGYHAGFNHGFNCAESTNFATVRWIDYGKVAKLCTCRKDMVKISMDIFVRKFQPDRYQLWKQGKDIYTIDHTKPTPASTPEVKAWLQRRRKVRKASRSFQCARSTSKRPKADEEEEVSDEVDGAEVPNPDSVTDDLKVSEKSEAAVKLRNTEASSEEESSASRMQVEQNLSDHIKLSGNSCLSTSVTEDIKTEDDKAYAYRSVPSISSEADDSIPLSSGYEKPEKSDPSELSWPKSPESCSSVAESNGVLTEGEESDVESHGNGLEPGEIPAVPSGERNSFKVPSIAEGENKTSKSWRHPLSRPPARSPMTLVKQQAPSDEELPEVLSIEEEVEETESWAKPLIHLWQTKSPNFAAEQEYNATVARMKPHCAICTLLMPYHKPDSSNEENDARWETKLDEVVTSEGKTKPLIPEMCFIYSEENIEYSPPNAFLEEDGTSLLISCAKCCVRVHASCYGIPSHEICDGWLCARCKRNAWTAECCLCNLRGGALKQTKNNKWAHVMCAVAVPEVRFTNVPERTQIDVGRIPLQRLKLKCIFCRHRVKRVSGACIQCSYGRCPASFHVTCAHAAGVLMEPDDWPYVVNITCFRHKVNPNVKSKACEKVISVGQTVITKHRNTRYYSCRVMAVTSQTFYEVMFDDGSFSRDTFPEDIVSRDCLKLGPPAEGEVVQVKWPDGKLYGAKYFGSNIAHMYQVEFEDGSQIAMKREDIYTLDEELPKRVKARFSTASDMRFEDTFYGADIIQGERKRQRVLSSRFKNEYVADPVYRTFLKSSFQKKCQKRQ
In words: co-IP; SUM149 nuclear lysate (300 mM NaCl, 0.5% NP40), sonicated, diluted twofold, DNase I digested; 5 µg specific antibody (KDM4C, GRHL2 or CTSL) or isotype IgG overnight at 4 °C, protein A/G magnetic beads, immunoblot with 10% input.

B1: grainyhead-like 2 transcription factor (protein, UniProt Q6ISB3 1-625)
chain: MSQESDNNKRLVALVPMPSDPPFNTRRAYTSEDEAWKSYLENPLTAATKAMMSINGDEDSAAALGLLYDYYKVPRDKRLLSVSKASDSQEDQEKRNCLGTSEAQSNLSGGENRVQVLKTVPVNLSLNQDHLENSKREQYSISFPESSAIIPVSGITVVKAEDFTPVFMAPPVHYPRGDGEEQRVVIFEQTQYDVPSLATHSAYLKDDQRSTPDSTYSESFKDAATEKFRSASVGAEEYMYDQTSSGTFQYTLEATKSLRQKQGEGPMTYLNKGQFYAITLSETGDNKCFRHPISKVRSVVMVVFSEDKNRDEQLKYWKYWHSRQHTAKQRVLDIADYKESFNTIGNIEEIAYNAVSFTWDVNEEAKIFITVNCLSTDFSSQKGVKGLPLMIQIDTYSYNNRSNKPIHRAYCQIKVFCDKGAERKIRDEERKQNRKKGKGQASQTQCNSSSDGKLAAIPLQKKSDITYFKTMPDLHSQPVLFIPDVHFANLQRTGQVYYNTDDEREGGSVLVKRMFRPMEEEFGPVPSKQMKEEGTKRVLLYVRKETDDVFDALMLKSPTVKGLMEAISEKYGLPVEKIAKLYKKSKKGILVNMDDNIIEHYSNEDTFILNMESMVEGFKVTLMEI
With B1, the binding result was “binds”.
